{
  "source": "patent US20240024503A1",
  "about": "(Stanford University, published 2024)",
  "biological_target": "T1, human/mouse B7-H3 (form used for the Kd values not stated) (human, UniProt Q5ZPR3 29-466, limits assumed)",
  "T1 construct": "also called human B7-H3",
  "T1 sequence": "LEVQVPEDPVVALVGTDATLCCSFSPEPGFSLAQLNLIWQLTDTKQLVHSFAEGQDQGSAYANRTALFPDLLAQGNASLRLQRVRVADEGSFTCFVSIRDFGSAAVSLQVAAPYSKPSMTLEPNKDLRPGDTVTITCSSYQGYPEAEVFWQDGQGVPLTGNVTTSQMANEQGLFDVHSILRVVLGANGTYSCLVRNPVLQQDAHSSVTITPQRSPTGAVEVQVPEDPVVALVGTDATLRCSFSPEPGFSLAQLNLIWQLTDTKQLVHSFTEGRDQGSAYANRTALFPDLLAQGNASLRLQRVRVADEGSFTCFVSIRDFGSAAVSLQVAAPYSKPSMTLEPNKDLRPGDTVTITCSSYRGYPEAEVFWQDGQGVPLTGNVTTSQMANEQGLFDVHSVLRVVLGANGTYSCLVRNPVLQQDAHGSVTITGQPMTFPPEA",
  "assay": "method not stated; binding affinities to human/mouse B7-H3",
  "data": [
    {"binder": "ABYAC12 affibody with N-terminal His-Tag, enterokinase cleavage site and C-terminal pentaglycine-cysteine (designed binder, biotinylated with NHS-PEG4-Biotin (amine-reactive, 1:1.6 molar ratio ABY:biotin) for the flow cytometry assays, MALDI-TOF 8.266 kDa; Expressed in E. coli from pET-22b; also called ABYACI2; AC12cys) HHHHHHDDDDKAEAKYAKEKIAALSEIIWLPNLTHGQIMAFIAALNDDPSQSSELLSEAKKLNDSQAPKGGGGGC", "values": [
      {"measurement": "Kd", "value": 0.9, "unit": "nM"}
    ]},
    {"binder": "ABYAC2 affibody with N-terminal His-Tag, enterokinase cleavage site and C-terminal pentaglycine-cysteine (designed binder, biotinylated with NHS-PEG4-Biotin (amine-reactive, 1:1.6 molar ratio ABY:biotin) for the flow cytometry assays, Expressed in E. coli from pET-22b (NheI/BamHI); also called biotinylated-AC2; parental AC2) HHHHHHDDDDKAEAKYAKEKIFAVGEIYWLPNLTHGQIMAFIAALNDDPSQSSELLSEAKKLNDSQAPKGGGGGC", "values": [
      {"measurement": "Kd", "value": 310, "unit": "nM"}
    ]}
  ]
}
